These are yes or no findings as the source states them, for the method shown. For some of these results: Binding seen in cells or lysates may run through a third protein. Some binding calls cover weakened binding; strength is not graded here. For some of these results: Sequences can lack the tags named with a protein.
Legend:
[1] = biological target: T1, murine Elp6 (subunit of mElp456) (Mus musculus) (UniProt Q8BK75); assay: SEC; three subunits co-expressed and purified as one complex (human, murine: Hi-5 cells, IgG agarose via Protein A on Elp6, TEV cleavage); gel filtration on Superose 6 Increase 10/300 GL by the legend (S200 Increase 10/300 GL by the methods), 20 mM HEPES pH 7.5, 100 mM NaCl, 2 mM MgCl2, 5 mM DTT; eluted at ~220 kDa; production of the yeast complex not told; both purified
T1 sequence: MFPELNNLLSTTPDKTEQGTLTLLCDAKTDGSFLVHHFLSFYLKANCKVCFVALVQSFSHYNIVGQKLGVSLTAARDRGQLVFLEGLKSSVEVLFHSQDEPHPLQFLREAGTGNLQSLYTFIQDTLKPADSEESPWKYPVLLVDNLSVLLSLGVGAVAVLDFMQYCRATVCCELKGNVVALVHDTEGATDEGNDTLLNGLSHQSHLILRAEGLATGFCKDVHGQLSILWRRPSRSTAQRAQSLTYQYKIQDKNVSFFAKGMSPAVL

[2] = biological target: T2, murine Elp6 L118W (Mus musculus) (UniProt Q8BK75); assay: co-purification; mElp456 variants co-expressed in Hi-5 cells, captured from lysate on IgG agarose via Protein A on Elp6, TEV cleavage, gel filtration
T2 sequence: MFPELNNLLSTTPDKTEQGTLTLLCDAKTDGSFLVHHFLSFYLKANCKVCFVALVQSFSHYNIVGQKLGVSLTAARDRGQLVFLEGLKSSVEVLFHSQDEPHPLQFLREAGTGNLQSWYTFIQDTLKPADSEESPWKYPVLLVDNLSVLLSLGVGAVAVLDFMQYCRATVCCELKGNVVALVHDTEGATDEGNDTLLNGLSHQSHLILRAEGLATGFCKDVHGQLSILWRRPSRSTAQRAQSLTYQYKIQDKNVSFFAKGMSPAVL

[3] = biological target: T3, murine Elp6 L126Q (Mus musculus) (UniProt Q8BK75); assay: as above
T3 sequence: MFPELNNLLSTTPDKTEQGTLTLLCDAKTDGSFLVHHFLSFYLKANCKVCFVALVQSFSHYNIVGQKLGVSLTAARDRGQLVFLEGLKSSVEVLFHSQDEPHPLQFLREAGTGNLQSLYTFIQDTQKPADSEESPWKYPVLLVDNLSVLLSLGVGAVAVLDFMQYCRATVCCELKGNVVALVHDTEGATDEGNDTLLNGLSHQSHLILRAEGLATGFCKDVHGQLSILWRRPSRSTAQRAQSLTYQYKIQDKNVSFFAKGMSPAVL

[4] = biological target: T4, murine Elp3 (subunit of mElp123), Twin-Strep-tagged (murine) (UniProt Q9CZX0); assay: pull-down; mElp123 co-expressed in Sf9-1 and purified as one complex via Twin-Strep on Elp3, held on Dynabeads MyOne Streptavidin C1 via Elp3, eluted with d-desthiobiotin; SDS-PAGE, Coomassie; both purified
T4 sequence: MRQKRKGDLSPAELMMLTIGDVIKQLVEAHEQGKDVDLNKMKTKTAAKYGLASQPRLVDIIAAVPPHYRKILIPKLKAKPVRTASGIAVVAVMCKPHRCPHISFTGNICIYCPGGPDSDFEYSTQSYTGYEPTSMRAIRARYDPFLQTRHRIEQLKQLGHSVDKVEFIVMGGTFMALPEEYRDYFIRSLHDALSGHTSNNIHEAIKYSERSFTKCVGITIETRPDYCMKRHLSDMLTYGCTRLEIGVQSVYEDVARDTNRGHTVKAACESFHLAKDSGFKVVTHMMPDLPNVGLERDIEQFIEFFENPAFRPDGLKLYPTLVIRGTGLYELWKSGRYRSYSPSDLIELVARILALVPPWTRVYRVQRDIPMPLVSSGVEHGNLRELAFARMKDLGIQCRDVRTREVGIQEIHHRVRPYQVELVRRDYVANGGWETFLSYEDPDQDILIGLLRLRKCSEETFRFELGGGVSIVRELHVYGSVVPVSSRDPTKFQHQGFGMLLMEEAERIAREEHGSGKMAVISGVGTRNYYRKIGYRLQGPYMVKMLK

[5] = biological target: T5, human ELP1, endogenous in fibroblasts (human (endogenous in fibroblasts)) (UniProt O95163); assay: co-IP; whole cell lysates of control and patient-derived fibroblasts (0.5% Triton X-100, 50 mM Tris/HCl pH 7.5, 1 mM EDTA, 150 mM NaCl), ELP1 antibody and protein A magnetic beads; blots for ELP1, ELP3, ELP4, ELP5, α-tubulin
T5 sequence: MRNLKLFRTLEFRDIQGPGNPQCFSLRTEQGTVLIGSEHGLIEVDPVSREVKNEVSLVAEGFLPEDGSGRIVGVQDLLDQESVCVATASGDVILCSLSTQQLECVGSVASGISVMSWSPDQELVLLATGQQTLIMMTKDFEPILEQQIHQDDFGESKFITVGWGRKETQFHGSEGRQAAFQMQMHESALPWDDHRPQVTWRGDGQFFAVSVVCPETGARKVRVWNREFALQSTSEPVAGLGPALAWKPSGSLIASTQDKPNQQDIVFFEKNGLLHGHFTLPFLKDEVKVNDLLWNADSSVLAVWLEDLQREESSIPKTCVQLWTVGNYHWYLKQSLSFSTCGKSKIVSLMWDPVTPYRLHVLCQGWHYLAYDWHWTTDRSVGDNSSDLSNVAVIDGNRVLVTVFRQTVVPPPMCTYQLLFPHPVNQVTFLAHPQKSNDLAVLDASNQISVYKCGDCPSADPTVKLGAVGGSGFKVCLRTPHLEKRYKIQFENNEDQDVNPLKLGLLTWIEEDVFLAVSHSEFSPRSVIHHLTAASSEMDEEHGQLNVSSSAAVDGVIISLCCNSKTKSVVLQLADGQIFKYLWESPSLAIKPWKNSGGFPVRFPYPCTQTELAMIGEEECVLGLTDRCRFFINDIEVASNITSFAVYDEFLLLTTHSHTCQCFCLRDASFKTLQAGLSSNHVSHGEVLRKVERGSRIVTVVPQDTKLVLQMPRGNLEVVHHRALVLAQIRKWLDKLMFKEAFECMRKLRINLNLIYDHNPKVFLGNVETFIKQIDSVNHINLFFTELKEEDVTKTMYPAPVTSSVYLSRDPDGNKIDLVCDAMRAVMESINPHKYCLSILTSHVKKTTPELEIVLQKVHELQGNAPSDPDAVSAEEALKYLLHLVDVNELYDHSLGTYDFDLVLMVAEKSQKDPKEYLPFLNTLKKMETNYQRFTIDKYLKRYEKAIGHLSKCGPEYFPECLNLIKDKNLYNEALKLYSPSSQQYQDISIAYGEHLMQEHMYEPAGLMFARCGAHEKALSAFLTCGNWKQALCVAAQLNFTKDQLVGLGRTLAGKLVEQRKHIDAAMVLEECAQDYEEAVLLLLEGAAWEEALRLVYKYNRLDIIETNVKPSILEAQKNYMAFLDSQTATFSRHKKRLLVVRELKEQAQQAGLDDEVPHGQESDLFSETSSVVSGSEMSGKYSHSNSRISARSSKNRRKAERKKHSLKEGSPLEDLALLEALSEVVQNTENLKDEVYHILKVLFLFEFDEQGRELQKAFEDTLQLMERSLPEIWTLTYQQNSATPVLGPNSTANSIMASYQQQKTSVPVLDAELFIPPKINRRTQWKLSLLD

[6] = biological target: T6, yeast Elp6 (subunit of yElp456) (yeast) (UniProt Q04868); assay: SEC; three subunits co-expressed and purified as one complex (human, murine: Hi-5 cells, IgG agarose via Protein A on Elp6, TEV cleavage); gel filtration on Superose 6 Increase 10/300 GL by the legend (S200 Increase 10/300 GL by the methods), 20 mM HEPES pH 7.5, 100 mM NaCl, 2 mM MgCl2, 5 mM DTT; eluted at ~220 kDa; production of the yeast complex not told; both purified
T6 sequence: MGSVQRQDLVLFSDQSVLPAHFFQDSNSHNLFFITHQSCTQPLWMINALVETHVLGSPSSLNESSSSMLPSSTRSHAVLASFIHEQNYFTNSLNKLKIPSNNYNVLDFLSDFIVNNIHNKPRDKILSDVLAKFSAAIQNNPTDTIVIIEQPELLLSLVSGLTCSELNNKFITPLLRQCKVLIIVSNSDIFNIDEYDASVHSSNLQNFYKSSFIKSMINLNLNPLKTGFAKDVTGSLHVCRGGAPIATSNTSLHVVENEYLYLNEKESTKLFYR

B1: murine Elp5 (subunit of mElp456) (protein, UniProt Q99L85 1-300)
chain: MLDSLLAIGGLVLLRDSVEWEGRSLLKALIKKSALRGEQVHVLGCEVSEEEFREGFDSDVNSRLVYHDLFRDPLNWSKPGEAVPEGPLKALRSMCKRTDHGSVTIALDSLSWLLCHIPCVTLCQALHALSQQNGDPGDNSLVEQVRVLGLLHEELHGPGSMGALNTLAHTEVTLSGKVDQTSASILCRRPQQRATYQTWWFSVLPDFSLTLHEGLPLRSELHPDHHTTQVDPTAHLTFNLHLSKKEREARDSLTLPFQFSSEKQKALLHPVPSRTTGHIFYEPDAFDDVDPEDPDDDLDI
Question: For B1, which binding [1] is on record?
Answer: binds

Question: What about the binding [2] of the same binder?
Answer: binds

Question: What about the binding [3] of the same binder?
Answer: binds

B2: murine Elp2 (subunit of mElp123) (protein, UniProt Q91WG4 1-831)
chain: MVSSVLEVSHVFCCPNRVRGALSWNTGPGGLLAFGTSCSVVLYDPQKKVVITNLNGHTARVNCLQWIRTEDGSPSNELVSGGSDNRVIHWELENNQVLKSVRLQGHEGPVCAVHAIYQSGPSEGEQHALIASAASDSTVRIWSKKGSEVKYLQTLSFRDGFVLSVCLAILPGTNVPVLACGDDDCRIHLYIQQDDQFQKALSLCGHEDWIRGVEWATFGRDLFLASCSQDCLIRIWRLYMKPASFETKDGSLRLKENTFTIKDGGVRTTVAVTLETVLAGHENWVNAVHWQPSFYKDGVLQQPVRLLSASMDKTMILWAPDEESGVWLEQVRVGEVGGNTLGFYDCQFGENGTMIIAHAFHGALHLWKQSTVNPRQWAPEIVISGHFDGVQDLMWDPEGEFIITTSTDQTTRLFAPWKKKDQKDRSQVTWHEIARPQIHGYNIKCLAMIDRFQFVSGADEKVLRVFSAPRNFVENFSVISRQSLSHMLCDDQDLPEGATVPALGLSNKALFQGDIASQPFEEDELISPAFGSPQVTFQPAVLNEPPTEDHLLQNTLWPEIQKLYGHGYEIVCVACNNSKTLLASACKASQKEHAAIILWSTASWKQVQSLAFHTLTVTQMTFSPDDKFLLAVSRDRTWSLWKRQDATSSEFDPFFSLFAFTNKITSVHSRIIWSCDWSPDNKYFFTGSRDKKVVVWGECKSSHNPMEHPIRPCSSILDVGSSVTAVSVCPVLNPAQRYIVAIGLESGKICIYSWNKTNQEINDWTSCVETNPSQSHSLGIRRLCWKSCSDDDDDDDDDDTEQSEEGPEWLHFASCGEDHTVKIYRVNRRAL
Question: How did the binding [4] turn out when B2 was run?
Answer: binds

B3: human ELP4, endogenous in fibroblasts (wild type) (protein, UniProt Q96EB1 1-424)
chain: MAAVATCGSVAASTGSAVATASKSNVTSFQRRGPRASVTNDSGPRLVSIAGTRPSVRNGQLLVSTGLPALDQLLGGGLAVGTVLLIEEDKYNIYSPLLFKYFLAEGIVNGHTLLVASAKEDPANILQELPAPLLDDKCKKEFDEDVYNHKTPESNIKMKIAWRYQLLPKMEIGPVSSSRFGHYYDASKRMPQELIEASNWHGFFLPEKISSTLKVEPCSLTPGYTKLLQFIQNIIYEEGFDGSNPQKKQRNILRIGIQNLGSPLWGDDICCAENGGNSHSLTKFLYVLRGLLRTSLSACIITMPTHLIQNKAIIARVTTLSDVVVGLESFIGSERETNPLYKDYHGLIHIRQIPRLNNLICDESDVKDLAFKLKRKLFTIERLHLPPDLSDTVSRSSKMDLAESAKRLGPGCGMMAGGKKHLDF
Question: How did the binding [5] turn out when B3 was run?
Answer: binds

B4: human ELP5, endogenous in fibroblasts (protein, UniProt Q8TE02 1-300)
chain: MLDSLLALGGLVLLRDSVEWEGRSLLKALVKKSALCGEQVHILGCEVSEEEFREGFDSDINNRLVYHDFFRDPLNWSKTEEAFPGGPLGALRAMCKRTDPVPVTIALDSLSWLLLRLPCTTLCQVLHAVSHQDSCPGDSSSVGKVSVLGLLHEELHGPGPVGALSSLAQTEVTLGGTMGQASAHILCRRPRQRPTDQTQWFSILPDFSLDLQEGPSVESQPYSDPHIPPVDPTTHLTFNLHLSKKEREARDSLILPFQFSSEKQQALLRPRPGQATSHIFYEPDAYDDLDQEDPDDDLDI
Question: B4 was tested. Which binding [5] did it give?
Answer: binds

B5: yeast Elp4 (subunit of yElp456) (protein, UniProt Q02884 1-456)
chain: MSFRKRGEILNDRGSGLRGPLLRGPPRTSSTPLRTGNRRAPGNVPLSDTTARLKKLNIADESKTKMGLDSSHVGVRPSPATSQPTTSTGSADLDSILGHMGLPLGNSVLVEEQSTTEFHSILGKLFAAQGIVHNRISDSSADKTRNGDTHVIVLSLNQMFAKELPGIYKGSRKQMKKNLISEEESKVTVQNLNETQRSTPSRYKDLKIAWKYKLADEKRLGSPDRDDIQQNSEYKDYNHQFDITTRLMPAPIASELTFIAPTQPVSTILSQIEQTIKRNDKKLIRIVIPSLLHPAMYPPKMFESSEIIGLMHGVRSLVKKYYERVVLFASISIDIITPPLLVLLRNMFDSVINLEPFNQEMTEFLERVYKSQPGKIQHGLVHILKLPVFTDRGEMRVLKSEWAFKNGRKKFEIEQWGIPVDDAEGSAASEQSHSHSHSDEISHNIPAKKTKISLDY
Question: Which binding [6] does the source give for B5 here?
Answer: binds
